Assay results as given in publication PMC8964741.
No constants are given. Whether binding was seen depends on the method and setting. In cells and extracts the contact can be indirect. Some results given as binding are weak or reduced against the parent protein; the word gives no strength. Tags and fused reporters may be left off the sequences shown.

Target: T1, Myc-tagged MCCC2 (methylcrotonoyl-CoA carboxylase subunit 2) (UniProt Q9HCC0)
T1 sequence: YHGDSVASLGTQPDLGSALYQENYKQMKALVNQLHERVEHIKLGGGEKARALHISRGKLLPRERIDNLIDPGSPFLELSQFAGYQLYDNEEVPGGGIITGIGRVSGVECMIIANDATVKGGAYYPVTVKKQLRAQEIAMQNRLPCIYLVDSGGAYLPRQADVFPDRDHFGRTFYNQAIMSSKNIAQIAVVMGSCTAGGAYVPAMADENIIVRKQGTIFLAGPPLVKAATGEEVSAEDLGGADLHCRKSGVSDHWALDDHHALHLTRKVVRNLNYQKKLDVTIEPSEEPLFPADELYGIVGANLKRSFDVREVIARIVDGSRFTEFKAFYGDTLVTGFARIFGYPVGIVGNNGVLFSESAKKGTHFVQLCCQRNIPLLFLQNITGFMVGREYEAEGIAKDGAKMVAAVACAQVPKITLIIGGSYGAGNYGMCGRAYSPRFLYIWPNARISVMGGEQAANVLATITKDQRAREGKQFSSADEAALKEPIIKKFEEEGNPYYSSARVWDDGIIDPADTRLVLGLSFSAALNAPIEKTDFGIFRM
Assay: co-IP; HEK-293T co-transfected with Myc-tagged MCCC2 and Flag-tagged ACOX2, 36 h; Pierce IP Lysis Buffer; 200 μg lysate on anti-Myc agarose beads; immunoblotting

B1: Flag-tagged ACOX2 (pEnter-ACOX2-Flag-His) (enzyme, UniProt Q99424 1-681)
chain: MGSPVHRVSLGDTWSRQMHPDIESERYMQSFDVERLTNILDGGAQNTALRRKVESIIHSYPEFSCKDNYFMTQNERYKAAMRRAFHIRLIARRLGWLEDGRELGYAYRALSGDVALNIHRVFVRALRSLGSEEQIAKWDPLCKNIQIIATYAQTELGHGTYLQGLETEATYDAATQEFVIHSPTLTATKWWPGDLGRSATHALVQAQLICSGARRGMHAFIVPIRSLQDHTPLPGIIIGDIGPKMDFDQTDNGFLQLNHVRVPRENMLSRFAQVLPDGTYVKLGTAQSNYLPMVVVRVELLSGEILPILQKACVIAMRYSVIRRQSRLRPSDPEAKVLDYQTQQQKLFPQLAISYAFHFLAVSLLEFFQHSYTAILNQDFSFLPELHALSTGMKAMMSEFCTQGAEMCRRACGGHGYSKLSGLPSLVTKLSASCTYEGENTVLYLQVARFLVKSYLQTQMSPGSTPQRSLSPSVAYLTAPDLARCPAQRAADFLCPELYTTAWAHVAVRLIKDSVQHLQTLTQSGADQHEAWNQTTVIHLQAAKVHCYYVTVKGFTEALEKLENEPAIQQVLKRLCDLHAIHGILTNSGDFLHDAFLSGAQVDMARTAYLDLLRLIRKDAILLTDAFDFTDQCLNSALGCYDGNVYERLFQWAQKSPTNTQENPAYEEYIRPLLQSWRSKL
In the case of B1, the binding is reported as “binds”.
